Source: PubChem BioAssay AID686937 (Drosophila RNAi Screening Center, 2013)

Assay: 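Knock-downs that reduce output of a secreted reporter enzyme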 (primary screen)
Cell system: Drosophila S2 cells expressing secreted horseradish peroxidase
Reagents: long dsRNA against Drosophila genes
Time to read-out: about 5.5 days (5 days dsRNA, then 12 h reporter induction)
Challenge: reporter expression induced after 5 days of dsRNA, read 12 h later; inducer not stated
Detection: 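Chemiluminescent measurement of peroxidase in the medium 12 h after reporter induction, following 5 days of dsRNA, given as a z-score per plate; higher means more secretion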
Scale: z-score: higher = more reporter secreted into medium
The screen tested about 23,000 reagents; this is a random part of those with a known target gene and a result. 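Reduced-secretion tags in replicate 1 do not always agree with the z-scores; no criterion for assigning the tags was given.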 The numbers tell different reagents against one gene apart. A plus sign joins genes that one reagent is predicted to hit. The record does not give: the amount of reagent.

The first 4 entries, to show the layout:
| gene | dsRNA no. | z-score, replicate 1 | z-score, replicate 2 | z-score, replicate 3 | z-score, replicate 4 | phenotype, replicate 1 |
| --- | --- | --- | --- | --- | --- | --- |
| CG15046 (GeneID 32833) | 1 | 0.53 | 0.55 | – | – | – |
| CG10300 (GeneID 42798) | 1 | 0.08 | 0.22 | – | – | – |
| CG32170 (GeneID 317894) | 1 | 0.29 | 0.42 | – | – | – |
| CG5883 (GeneID 39352) | 1 | 0.47 | 0.45 | – | – | – |

The listing, from the first entry:
| gene | dsRNA no. | z-score, replicate 1 | z-score, replicate 2 | z-score, replicate 3 | z-score, replicate 4 | phenotype, replicate 1 |
| --- | --- | --- | --- | --- | --- | --- |
| CG15046 (GeneID 32833) | 1 | 0.53 | 0.55 | – | – | – |
| CG10300 (GeneID 42798) | 1 | 0.08 | 0.22 | – | – | – |
| CG32170 (GeneID 317894) | 1 | 0.29 | 0.42 | – | – | – |
| CG5883 (GeneID 39352) | 1 | 0.47 | 0.45 | – | – | – |
| Txl (GeneID 38646) | 1 | 0.24 | 0.25 | – | – | – |
| AspRS-m (GeneID 326155) | 1 | 0.27 | -0.07 | – | – | – |
| Spase25 (GeneID 32095) | 1 | -1.78 | -1.08 | – | – | reduced secretion |
| Ets96B (GeneID 42952) | 1 | -0.33 | -0.01 | – | – | – |
| CG14787 (GeneID 31096) | 1 | 0.04 | 0.31 | – | – | – |
| Eip63E (GeneID 38433) | 1 | 0.25 | 0.5 | – | – | – |
| CG10909 (GeneID 41581) | 1 | -0.01 | 0.2 | – | – | – |
| CG6576 (GeneID 39003) | 1 | 0.15 | 0.36 | – | – | – |
| Sgs7 (GeneID 47198) | 1 | 0.14 | -0.05 | – | – | – |
| CG17597 (GeneID 35140) | 1 | 0.13 | 0.34 | – | – | – |
| scro (GeneID 3355151) | 1 | 0.1 | 0.76 | – | – | – |
| scro (GeneID 3355151) | 2 | 0.34 | 0.47 | – | – | – |
| CG7402 (GeneID 39994) | 1 | 0.1 | 0.15 | – | – | – |
| Spf45 (GeneID 3355114) | 1 | -0.06 | 0.26 | – | – | – |
| bib (GeneID 34330) | 1 | 0.31 | 0.44 | – | – | – |
| GstD7 (GeneID 48340) | 1 | 0.28 | 0.18 | -0.42 | -0.09 | – |
| fd96Ca (GeneID 43010) | 1 | 0.32 | 0.26 | – | – | – |
| CG1468 (GeneID 31920) | 1 | 0.48 | 0.41 | – | – | – |
| Vha100-4 (GeneID 42214) | 1 | 0.38 | 0.52 | – | – | – |
| CG4598 (GeneID 34315) | 1 | 0.24 | 0.1 | – | – | – |
| eIF2A (GeneID 40431) | 1 | 0.46 | 0.39 | – | – | – |
| Kaz-m1 (GeneID 43154) | 1 | 0.35 | 0.47 | – | – | – |
| CG30394 (GeneID 37437) | 1 | 0.35 | 0.51 | – | – | – |
| CG30394 (GeneID 37437) | 2 | 0.37 | 0.43 | – | – | – |
| CG10561 (GeneID 35189) | 1 | 0.24 | 0.31 | – | – | – |
| Pep (GeneID 45961) | 1 | 0.02 | 0 | – | – | – |
| CG30031 + deltaTry + gammaTry | 1 | 0.49 | 0.51 | – | – | – |
| CG15120 (GeneID 37248) | 1 | 0.35 | 0.13 | – | – | – |
| CG4896 (GeneID 33305) | 1 | 0.23 | 0.1 | – | – | – |
